Patent US20220324970A1
No constants are given. Whether binding was seen depends on the method and setting. Some entries that bind do so weakly or less than the wild type.

Assays:
[1] = molecular target: recombinant dimeric IgA2 construct; assay: BLI: mpIgR pre-complexed with VHH2 binding to immobilized IgA
[2] = molecular target: recombinant dimeric IgA2 construct; assay: BLI: mpIgR alone binding to immobilized IgA

B1: mouse pIgR extracellular domain (ECD) (receptor)
chain: KSPIFGPQEVSSIEGDSVSITCYYPDTSVNRHTRKYWCRQGASGMCTTLISSNGYLSKEYSGRANLINFPENNTFVINIEQLTQDDTGSYKCGLGTSNRGLSFDVSLEVSQVPELPSDTHVYTKDIGRNVTIECPFKRENAPSKKSLCKKTNQSCELVIDSTEKVNPSYIGRAKLFMKGTDLTVFYVNISHLTHNDAGLYICQAGEGPSADKKNVDLQVLAPEPELLYKDLRSSVTFECDLGREVANEAKYLCRMNKETCDVIINTLGKRDPDFEGRILITPKDDNGRFSVLITGLRKEDAGHYQCGAHSSGLPQEGWPIQTWQLFVNEESTIPNRRSVVKGVTGGSVAIACPYNPKESSSLKYWCRWEGDGNGHCPVLVGTQAQVQEEYEGRLALFDQPGNGTYTVILNQLTTEDAGFYWCLTNGDSRWRTTIELQVAEATREPNLEVTPQNATAVLGETFTVSCHYPCKFYSQEKYWCKWSNKGCHILPSHDEGARQSSVSCDQSSQLVSMTLNPVSKEDEGWYWCGVKQGQTYGETTAIYIAVEERTRGSSHVNPTDANARAKVALEEEVVDSSISEKENKAIPNPGPFANEREIQNVGDQAQENRASGDAGSADGQSRSSSSKHHHHHH
binding [1]: binds
binding [2]: binds
